Results taken from PubChem BioAssay AID540276 (National Center for Advancing Translational Sciences (NCATS), 2011).
The whole screen tested about 300,000 compounds, of which about 5,400 (1.8%) were called active. Inconclusive means that the source gave no clear call. Such entries were picked first, then a sample of the others. The call rests on the fitted dose curve; tested in HEK293 cells. Where the call is inconclusive, the potency comes from a doubtful curve fit.
On the % scale 0 is the no-effect control and ±100 the full control effect; potency means the concentration at half of the fitted maximal effect.

Assay: qHTS for inhibitors of binding or entry into cells for Marburg Virus
Conditions: Marburg virus pseudotyped entry inhibition, cell reporter; activity change, negative = inhibition: at 37.8 µM (top of the series) unless noted
In the case of `CCC(=O)N1CCn2c1nc1ccccc12`, the Potency is reported as inconclusive: 29.1 µM [activator, single point]. For `c1ccc(CSc2ccc(-c3ccccn3)nn2)nc1`, the Potency was inconclusive: 35.5 µM [inhibitor, single point]. For `CCCCn1c(CN2C(=O)c3ccccc3C2=O)nc2ccccc2c1=O`, the Potency was inconclusive: 1 µM [activator, partial curve, poor fit]. With `COc1ccc(/C=C/c2nc(C#N)c(N3CCC(C)CC3)o2)cc1OC` the “activity change, negative = inhibition” value was inactive: 3.21% [at 46.1 µM]. For `N#CCCCn1c(=O)oc2ccccc21`, the Potency was inconclusive: 35.5 µM [activator, single point]. For `CCOc1ccc(C(=O)Nc2cccc(-c3nc4cccnc4s3)c2C)cc1OCC`, the “activity change, negative = inhibition” value was inactive: -26.7% [at 46.1 µM]. With `COc1ccccc1CNC(=O)C(=O)c1cn(CC(=O)N2CCCC2)c2ccccc12` the “activity change, negative = inhibition” value was inactive: 13.4% [at 46.1 µM]. In the case of `Cc1ccccc1-n1ncc(C(C)NC(=O)c2ccco2)c1C` (stereo not given), the “activity change, negative = inhibition” value is reported as inactive: 4.45% [at 46.1 µM]. In the case of `CC(=O)N1CCc2c(sc(NC(=O)CCS(=O)(=O)c3ccc(C)cc3)c2C#N)C1`, the “activity change, negative = inhibition” value is reported as inactive: -11.6%. In the case of `O=C(Nc1nc(-c2ccccn2)cs1)c1cc(Cl)ccc1[N+](=O)[O-]`, the Potency is reported as active: 2.82 µM. For `Cc1ccc(N2C(=O)CS(=O)C(c3ccccc3)C2=O)cc1C` (stereo not given), the Potency was inconclusive: 31.6 µM [activator, partial curve, poor fit]. In the case of `O=C(CC12CC3CC(CC(C3)C1)C2)NCC(c1ccc(F)cc1)N1CCOCC1` (stereo not given), the Potency is reported as inconclusive: 12.6 µM [inhibitor, partial curve, poor fit]. With `O=C(c1cc(COc2cccc(C(F)(F)F)c2)on1)N1CCc2ccccc2C1` the “activity change, negative = inhibition” value was inactive: -13.5%. With `O=C(Nc1ccc2c3c(cccc13)CC2)c1cccc([N+](=O)[O-])c1` the Potency was inconclusive: 3.98 µM [activator, partial curve, poor fit]. With `COc1ccc(-n2cnc3cc(NS(=O)(=O)c4ccccc4)ccc32)cc1` the Potency was inconclusive: 29.1 µM [inhibitor, single point]. In the case of `C/C(CC(=O)NCc1ccccc1Cl)=N/NC(=O)c1ccccn1`, the Potency is reported as inconclusive: 6.31 µM [activator, partial curve, poor fit]. For `O=C(Nc1ccccc1Cl)c1cc2c(-c3ccccc3)nn(-c3ccccc3)c2s1`, the “activity change, negative = inhibition” value was inactive: -3.52% [at 46.1 µM]. With `CC(C)c1cc(C(=O)OCC(=O)NC(=O)NCc2ccco2)c(O)c(C(C)C)c1` the Potency was inconclusive: 35.5 µM [inhibitor, single point]. In the case of `CN(C)c1ccc(C(CNS(=O)(=O)c2ccc([N+](=O)[O-])cc2)N2CCCC2)cc1` (stereo not given), the Potency is reported as inconclusive: 20 µM [inhibitor, single point]. For `O=C(Nc1ccc(F)cc1F)c1sccc1SCc1cccc(C(F)(F)F)c1`, the “activity change, negative = inhibition” value was inactive: -24.3%. For `N=c1c(C(=O)NCc2ccccc2)cc2c(=O)n3ccccc3nc2n1Cc1ccco1`, the Potency was active: 11.2 µM. With `O=C(CCC(=O)N/N=C/c1c[nH]c2ccccc12)NCc1ccccc1` the Potency was inconclusive: 10 µM [inhibitor, single point]. With `COc1cc(C2CC(=O)Nc3c2c(C)nn3-c2nncc(-c3ccccc3)n2)cc(OC)c1OC` (stereo not given) the “activity change, negative = inhibition” value was inactive: -29% [at 46.1 µM]. For `O=C(NCCn1cc(SCc2ccccc2)c2ccccc21)c1ccccc1F`, the Potency was inconclusive: 25.9 µM [inhibitor, single point]. For `N#Cc1c(C(F)(F)F)cc(-c2cccs2)nc1SCc1cccnc1`, the Potency was inconclusive: 29.1 µM [inhibitor, partial curve, poor fit]. For `CCc1ccc2c(c1)NC(c1cccnc1)=NC(c1ccc(C(C)(C)C)cc1)=N2`, the Potency was inconclusive: 35.5 µM [inhibitor, single point]. With `CCOC(=O)CNC(=O)C1Cc2ccccc2CN1S(=O)(=O)c1cccs1` (stereo not given) the Potency was inconclusive: 0.562 µM [inhibitor, full curve, poor fit]. For `Cc1oc(/C=N/NC(=O)CN(c2ccccc2Cl)S(C)(=O)=O)cc1Br`, the Potency was inconclusive: 0.0291 µM [inhibitor, full curve, poor fit]. With `COc1cccc(-c2nc(=S)c3c(n2Cc2ccco2)CCCC3)c1` the “activity change, negative = inhibition” value was inactive: -27.3%. In the case of `COC(=O)c1nc(NC(=O)c2cc(OC)c(OC)c(OC)c2)n[nH]1`, the “activity change, negative = inhibition” value is reported as inactive: 4.05% [at 46.1 µM]. With `Cc1[nH]n(-c2ccccc2)c(=O)c1/C=N/NC(=O)c1cccc([N+](=O)[O-])c1` the Potency was inconclusive: 35.5 µM [inhibitor, single point]. With `CN1C(=O)C(C)(C)c2cc(S(=O)(=O)NCC3CCC(C(=O)NCc4ccc(F)cc4)CC3)ccc21` (stereo not given) the “activity change, negative = inhibition” value was inactive: 12% [at 46.1 µM]. For `COC(=O)CC1C(=O)NCCN1C(=S)Nc1ccccc1Cl` (stereo not given), the Potency was inconclusive: 39.8 µM [inhibitor, partial curve, poor fit]. In the case of `COCc1cc(=O)[nH]c(Nc2nc(C)c3ccccc3n2)n1`, the “activity change, negative = inhibition” value is reported as inactive: 3.28%. In the case of `CCOC(=O)c1cnc2c(OC)cccc2c1Nc1ccc2c(c1)OCCO2`, the Potency is reported as inconclusive: 15.8 µM [inhibitor, single point]. With `CC1CCCN(CCCNC(=O)c2ccc3c(c2)N(Cc2ccc(F)cc2)C(=O)c2ccccc2S3=O)C1` (stereo not given) the Potency was inconclusive: 12.6 µM [inhibitor, partial curve, poor fit]. In the case of `CC1=C(C(=O)Nc2ccc(C)cc2C)C(c2ccc(C)o2)NC(=S)N1` (stereo not given), the “activity change, negative = inhibition” value is reported as inactive: 6.22%. For `O=C(CN1CCN(Cc2cccc3ccccc23)CC1)NCCc1ccccc1`, the Potency was inconclusive: 15.8 µM [inhibitor, partial curve, poor fit]. With `O=C(CN1C(=O)c2ccccc2S1(=O)=O)NCc1ccccc1Cl` the “activity change, negative = inhibition” value was inactive: -6.67%. For `Cc1noc(C)c1C(=O)NCc1ccccc1`, the Potency was inconclusive: 0.708 µM [activator, full curve, poor fit]. For `CCOc1ccc(CNc2ncc(-c3ccccc3)n2C)cc1`, the Potency was inconclusive: 3.16 µM [activator, single point]. In the case of `Cc1nn(CC(N)=O)c(=O)c2ccccc12`, the “activity change, negative = inhibition” value is reported as inactive: 13%. In the case of `Oc1cccc(C(Nc2nccs2)c2ccc3cccnc3c2O)c1` (stereo not given), the Potency is reported as inconclusive: 3.55 µM [inhibitor, partial curve]. In the case of `O=C(CN1C2CCCC1CC(NC(=O)C1CCCCC1)C2)Nc1ccccc1C(F)(F)F` (stereo not given), the Potency is reported as inconclusive: 35.5 µM [inhibitor, single point]. With `COCc1nnc(NC(=O)c2ccc(S(=O)(=O)N(C)Cc3ccccc3)cc2)o1` the Potency was inconclusive: 10 µM [inhibitor, partial curve, poor fit]. In the case of `CC1(C)CC(=O)C(C=Nc2ccc(O)c(N=CC3=C(O)CC(C)(C)CC3=O)c2)=C(O)C1`, the Potency is reported as inconclusive: 13 µM [inhibitor, partial curve, poor fit]. For `CCOc1ccccc1C1c2cc3c(cc2OC(C)(N2CCCC2)C1C)OCO3` (stereo not given), the “activity change, negative = inhibition” value was inactive: 19.2% [at 46.1 µM]. In the case of `CCCNc1ccc(-c2nc(-c3ccncc3)no2)cc1[N+](=O)[O-]`, the “activity change, negative = inhibition” value is reported as inactive: 27.4% [at 46.1 µM]. In the case of `O=C(NCc1ccccc1Cl)C1CCN(S(=O)(=O)N2CCCCCC2)CC1`, the Potency is reported as inconclusive: 29.1 µM [inhibitor, single point]. With `CC1(C)Cc2ccccc2-c2nnc(SCC(=O)N3CCc4ccccc43)n21` the “activity change, negative = inhibition” value was inactive: -5.21%. With `CCN=C1SC(CC(=O)NCCc2ccc(OC)c(OC)c2)C(=O)N1CC` (stereo not given) the “activity change, negative = inhibition” value was inactive: 4.96%. In the case of `CN1C(=O)C2(C(C#N)=C(N)N(c3ccc(Cl)cc3)C3=C2C(=O)CC(C)(C)C3)c2ccccc21` (stereo not given), the “activity change, negative = inhibition” value is reported as inactive: -12.4%. With `Cc1ccc(NC(=O)CNC(=O)OCc2ccccc2)cc1C` the “activity change, negative = inhibition” value was inactive: -6.58% [at 46.1 µM]. With `Cc1c(O)ccc(C(=O)COc2ccccc2F)c1O` the “activity change, negative = inhibition” value was inactive: -24.8%. With `COC(=O)c1ccc(-c2ncc(-c3cccc4ccccc34)o2)cc1` the Potency was inconclusive: 11.2 µM [activator, single point]. In the case of `COc1ccc(C(C(=O)NC(C)(C)C)N(C(=O)CCC(=O)Nc2ccccn2)C2CCCCC2)cc1` (stereo not given), the Potency is reported as inconclusive: 1.12 µM [inhibitor, full curve, poor fit]. For `O=C(NC1CCCC1)C1C2C=CC3(CN(Cc4cccs4)C(=O)C13)O2` (stereo not given), the “activity change, negative = inhibition” value was inactive: 5.59%. With `Cc1onc(-c2c(Cl)cccc2Cl)c1NC(=O)NC1CCSC1` (stereo not given) the Potency was inconclusive: 11.2 µM [inhibitor, partial curve, poor fit]. In the case of `Cc1ccc2c(C)c(C(=O)Nc3c(C)n(C)n(-c4ccccc4)c3=O)oc2c1C`, the Potency is reported as inconclusive: 0.126 µM [inhibitor, full curve, poor fit]. In the case of `Cc1noc(C)c1C(=O)NNc1cc(Cl)ccc1Cl`, the Potency is reported as inconclusive: 11.2 µM [inhibitor, partial curve, poor fit]. In the case of `COc1ccccc1N/C(N)=N/c1nc(CSc2nc3ccccc3s2)cc(=O)[nH]1`, the “activity change, negative = inhibition” value is reported as inactive: -2.78%. For `Cc1sc(NC(=S)NC(=O)c2ccco2)c(C(N)=O)c1C`, the Potency was inconclusive: 10 µM [activator, partial curve, poor fit]. For `Fc1ccccc1COc1cccc(/C=N/n2cnnc2)c1`, the Potency was inconclusive: 29.1 µM [inhibitor, single point]. With `CN1/C(=C\C=[N+](C)c2ccccc2)C(C)(C)c2ccccc21` the Potency was inconclusive: 5.17 µM [inhibitor, partial curve, poor fit]. With `Fc1cccc(-c2cc3nc4c(c(NCc5ccco5)n3n2)CCCC4)c1` the Potency was inconclusive: 29.1 µM [inhibitor, single point]. With `O=Nc1c(O)n(Cc2ccc(Cl)c(Cl)c2)c2ccccc12` the “activity change, negative = inhibition” value was inactive: -23.6%. In the case of `Cc1ccccc1NC(=O)C1Cc2ccccc2CN1C(=O)OCc1ccccc1` (stereo not given), the Potency is reported as inconclusive: 2.51 µM [activator, single point]. In the case of `CN(C)C(=S)N=c1ssc(=S)n1Cc1cccnc1`, the Potency is reported as inconclusive: 4.47 µM [inhibitor, full curve, poor fit]. With `COCCCN1C(=O)C2C(C(=O)Nc3cc(C)cc(C)c3)C3C=CC2(O3)C1C(=O)NC1CCCCC1` (stereo not given) the “activity change, negative = inhibition” value was inactive: -15.1% [at 46.1 µM]. With `CCC(C)NC(=O)CSc1ccc(S(=O)(=O)N(C)C2CCCCC2)cn1` (stereo not given) the Potency was inconclusive: 3.55 µM [inhibitor, partial curve, poor fit].
